Source: the supplement of paper PMC12819154, “High-throughput peptide-centric local stability assay extends protein–ligand identification to membrane proteins, tissues and bacteria” (Nature Structural & Molecular Biology, 2025)
Only a part is listed here, and it is no random draw. Most entries show no effect beyond the scatter of the controls.
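Further: lysate desalted by size exclusion to strip endogenous ATP, peptide intensities built from DIA-NN precursor signals, and peptides missing any value discarded before comparison.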

The chains behind the UniProt entries cited, without tags or fusion partners. Where a name states a change or a piece, a line headed by the entry shows the natural chain unless it says otherwise.
UniProt P06965: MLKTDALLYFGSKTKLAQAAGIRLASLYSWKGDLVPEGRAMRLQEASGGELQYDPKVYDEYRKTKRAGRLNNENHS
UniProt P09148: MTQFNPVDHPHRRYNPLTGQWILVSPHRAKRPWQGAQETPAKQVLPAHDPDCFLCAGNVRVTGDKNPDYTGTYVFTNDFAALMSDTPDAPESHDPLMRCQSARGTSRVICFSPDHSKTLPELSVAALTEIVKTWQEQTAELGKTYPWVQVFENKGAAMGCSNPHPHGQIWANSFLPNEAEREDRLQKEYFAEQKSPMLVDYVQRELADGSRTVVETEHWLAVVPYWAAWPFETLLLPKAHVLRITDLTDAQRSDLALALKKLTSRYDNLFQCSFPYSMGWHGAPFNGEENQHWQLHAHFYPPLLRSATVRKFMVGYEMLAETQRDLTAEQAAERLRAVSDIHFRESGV
UniProt P08202: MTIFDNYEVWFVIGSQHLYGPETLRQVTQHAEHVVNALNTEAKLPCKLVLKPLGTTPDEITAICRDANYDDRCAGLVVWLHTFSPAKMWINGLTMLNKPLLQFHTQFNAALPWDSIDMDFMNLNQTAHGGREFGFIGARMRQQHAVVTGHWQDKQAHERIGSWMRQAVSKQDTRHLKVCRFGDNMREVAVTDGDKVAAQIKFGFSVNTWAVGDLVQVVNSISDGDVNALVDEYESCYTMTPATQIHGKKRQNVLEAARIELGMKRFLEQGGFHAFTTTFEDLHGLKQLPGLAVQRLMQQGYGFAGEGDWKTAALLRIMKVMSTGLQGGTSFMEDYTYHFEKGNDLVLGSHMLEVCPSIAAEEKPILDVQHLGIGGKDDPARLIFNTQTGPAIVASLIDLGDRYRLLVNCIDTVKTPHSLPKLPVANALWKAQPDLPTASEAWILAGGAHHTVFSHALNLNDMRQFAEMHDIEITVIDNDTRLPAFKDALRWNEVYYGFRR
UniProt P08245: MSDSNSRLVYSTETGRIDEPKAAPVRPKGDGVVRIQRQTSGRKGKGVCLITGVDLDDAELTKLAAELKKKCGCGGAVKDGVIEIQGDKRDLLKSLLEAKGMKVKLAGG
UniProt P06864: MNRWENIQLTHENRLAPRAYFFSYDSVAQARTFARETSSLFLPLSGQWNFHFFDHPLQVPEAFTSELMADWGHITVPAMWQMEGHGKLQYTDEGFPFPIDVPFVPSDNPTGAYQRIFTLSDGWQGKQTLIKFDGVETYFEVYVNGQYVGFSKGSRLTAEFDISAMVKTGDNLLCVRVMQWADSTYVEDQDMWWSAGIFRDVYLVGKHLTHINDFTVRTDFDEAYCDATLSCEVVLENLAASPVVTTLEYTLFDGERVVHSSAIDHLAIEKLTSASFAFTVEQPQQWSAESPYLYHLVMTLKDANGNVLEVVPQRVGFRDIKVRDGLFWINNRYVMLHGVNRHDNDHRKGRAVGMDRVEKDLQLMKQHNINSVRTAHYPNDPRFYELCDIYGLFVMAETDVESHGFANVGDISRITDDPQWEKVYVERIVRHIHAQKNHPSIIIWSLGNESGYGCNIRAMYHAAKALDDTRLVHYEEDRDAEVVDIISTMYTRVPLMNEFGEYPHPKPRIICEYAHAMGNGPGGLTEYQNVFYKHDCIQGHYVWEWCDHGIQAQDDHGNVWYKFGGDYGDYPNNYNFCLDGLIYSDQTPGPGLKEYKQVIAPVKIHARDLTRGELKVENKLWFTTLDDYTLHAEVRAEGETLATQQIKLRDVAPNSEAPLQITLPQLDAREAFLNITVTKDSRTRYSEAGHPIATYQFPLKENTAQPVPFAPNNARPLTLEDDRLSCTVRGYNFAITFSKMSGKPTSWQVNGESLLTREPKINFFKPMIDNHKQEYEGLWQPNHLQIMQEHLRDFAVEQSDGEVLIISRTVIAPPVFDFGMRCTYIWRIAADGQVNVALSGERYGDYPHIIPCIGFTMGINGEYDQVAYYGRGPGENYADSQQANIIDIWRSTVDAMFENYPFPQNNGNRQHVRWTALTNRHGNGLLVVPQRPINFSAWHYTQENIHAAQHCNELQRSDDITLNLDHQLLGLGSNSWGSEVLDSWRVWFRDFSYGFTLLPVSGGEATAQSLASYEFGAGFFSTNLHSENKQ
UniProt P08395: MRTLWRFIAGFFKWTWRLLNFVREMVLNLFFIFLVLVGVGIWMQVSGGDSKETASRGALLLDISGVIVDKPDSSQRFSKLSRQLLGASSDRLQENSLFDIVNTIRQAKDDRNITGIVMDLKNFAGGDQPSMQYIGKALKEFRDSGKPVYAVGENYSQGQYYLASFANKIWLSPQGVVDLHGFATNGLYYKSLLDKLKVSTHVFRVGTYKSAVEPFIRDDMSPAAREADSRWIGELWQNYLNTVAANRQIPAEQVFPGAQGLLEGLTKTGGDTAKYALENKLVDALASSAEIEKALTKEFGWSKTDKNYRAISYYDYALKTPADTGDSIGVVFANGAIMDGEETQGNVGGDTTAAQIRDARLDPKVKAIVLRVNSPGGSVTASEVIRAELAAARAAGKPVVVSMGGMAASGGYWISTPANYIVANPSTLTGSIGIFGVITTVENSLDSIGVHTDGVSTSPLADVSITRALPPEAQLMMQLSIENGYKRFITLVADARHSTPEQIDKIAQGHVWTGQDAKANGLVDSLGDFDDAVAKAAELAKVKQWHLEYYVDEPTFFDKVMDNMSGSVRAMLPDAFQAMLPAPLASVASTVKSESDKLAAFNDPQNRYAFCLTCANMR
UniProt P08368: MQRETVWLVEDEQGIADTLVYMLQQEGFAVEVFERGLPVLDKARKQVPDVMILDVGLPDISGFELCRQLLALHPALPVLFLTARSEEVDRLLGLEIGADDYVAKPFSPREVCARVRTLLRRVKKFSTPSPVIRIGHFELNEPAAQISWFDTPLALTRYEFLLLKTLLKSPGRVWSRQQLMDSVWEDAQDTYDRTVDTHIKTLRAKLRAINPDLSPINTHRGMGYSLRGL
UniProt P07363, whole entry: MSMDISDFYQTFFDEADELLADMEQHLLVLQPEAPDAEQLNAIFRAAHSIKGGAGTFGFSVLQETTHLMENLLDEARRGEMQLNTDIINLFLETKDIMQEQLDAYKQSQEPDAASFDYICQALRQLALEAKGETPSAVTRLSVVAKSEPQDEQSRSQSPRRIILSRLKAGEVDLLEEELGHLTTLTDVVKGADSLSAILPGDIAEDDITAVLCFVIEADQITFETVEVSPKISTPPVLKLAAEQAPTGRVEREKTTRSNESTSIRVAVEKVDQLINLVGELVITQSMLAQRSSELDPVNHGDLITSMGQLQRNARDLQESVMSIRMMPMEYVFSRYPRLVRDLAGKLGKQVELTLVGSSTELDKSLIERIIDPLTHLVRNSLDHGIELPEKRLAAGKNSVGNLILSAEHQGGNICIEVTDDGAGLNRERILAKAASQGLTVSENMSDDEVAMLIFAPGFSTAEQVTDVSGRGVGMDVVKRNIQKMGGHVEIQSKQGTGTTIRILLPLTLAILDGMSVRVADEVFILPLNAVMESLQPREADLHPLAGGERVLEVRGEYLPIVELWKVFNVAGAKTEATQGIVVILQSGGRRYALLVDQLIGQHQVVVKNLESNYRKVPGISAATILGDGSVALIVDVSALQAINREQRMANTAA
UniProt P09126: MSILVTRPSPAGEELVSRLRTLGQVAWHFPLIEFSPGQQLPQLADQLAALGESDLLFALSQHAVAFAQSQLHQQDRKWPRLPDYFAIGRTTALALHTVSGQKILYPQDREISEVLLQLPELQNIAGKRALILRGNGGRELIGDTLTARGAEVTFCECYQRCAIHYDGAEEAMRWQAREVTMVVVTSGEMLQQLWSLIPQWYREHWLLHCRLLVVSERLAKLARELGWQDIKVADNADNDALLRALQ
UniProt P09394: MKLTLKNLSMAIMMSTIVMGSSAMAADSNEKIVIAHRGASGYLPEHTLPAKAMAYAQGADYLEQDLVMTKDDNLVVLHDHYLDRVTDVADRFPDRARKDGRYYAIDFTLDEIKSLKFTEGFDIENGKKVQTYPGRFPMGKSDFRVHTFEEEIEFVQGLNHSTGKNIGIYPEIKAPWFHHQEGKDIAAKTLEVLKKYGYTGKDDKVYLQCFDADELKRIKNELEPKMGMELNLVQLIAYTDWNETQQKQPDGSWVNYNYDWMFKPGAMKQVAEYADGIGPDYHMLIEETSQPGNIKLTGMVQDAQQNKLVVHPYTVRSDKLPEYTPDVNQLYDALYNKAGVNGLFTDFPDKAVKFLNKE
UniProt P08369: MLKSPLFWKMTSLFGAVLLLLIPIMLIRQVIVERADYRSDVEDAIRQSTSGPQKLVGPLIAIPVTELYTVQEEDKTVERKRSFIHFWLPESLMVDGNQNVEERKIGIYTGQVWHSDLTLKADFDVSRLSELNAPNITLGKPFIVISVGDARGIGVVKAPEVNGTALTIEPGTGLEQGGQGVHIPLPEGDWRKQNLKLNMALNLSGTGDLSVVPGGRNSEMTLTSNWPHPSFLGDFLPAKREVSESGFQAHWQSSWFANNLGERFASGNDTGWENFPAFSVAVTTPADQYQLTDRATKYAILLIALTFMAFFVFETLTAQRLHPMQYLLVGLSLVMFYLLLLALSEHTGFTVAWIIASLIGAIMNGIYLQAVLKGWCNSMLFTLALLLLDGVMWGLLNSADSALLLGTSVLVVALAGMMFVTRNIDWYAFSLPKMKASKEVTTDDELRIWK
UniProt P09099: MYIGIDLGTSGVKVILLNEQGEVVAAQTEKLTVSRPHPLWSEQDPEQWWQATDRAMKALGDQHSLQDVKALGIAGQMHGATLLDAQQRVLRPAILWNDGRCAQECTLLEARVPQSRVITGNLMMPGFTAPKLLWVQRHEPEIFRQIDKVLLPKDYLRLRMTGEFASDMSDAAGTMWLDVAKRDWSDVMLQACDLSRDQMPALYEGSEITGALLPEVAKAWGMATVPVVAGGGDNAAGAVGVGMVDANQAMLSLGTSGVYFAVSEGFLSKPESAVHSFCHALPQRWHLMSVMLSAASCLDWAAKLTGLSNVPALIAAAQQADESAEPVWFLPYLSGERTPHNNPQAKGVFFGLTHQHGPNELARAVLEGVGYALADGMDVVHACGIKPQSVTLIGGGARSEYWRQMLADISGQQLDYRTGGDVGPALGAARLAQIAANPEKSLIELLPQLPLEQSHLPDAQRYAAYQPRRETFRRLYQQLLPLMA
UniProt P06988: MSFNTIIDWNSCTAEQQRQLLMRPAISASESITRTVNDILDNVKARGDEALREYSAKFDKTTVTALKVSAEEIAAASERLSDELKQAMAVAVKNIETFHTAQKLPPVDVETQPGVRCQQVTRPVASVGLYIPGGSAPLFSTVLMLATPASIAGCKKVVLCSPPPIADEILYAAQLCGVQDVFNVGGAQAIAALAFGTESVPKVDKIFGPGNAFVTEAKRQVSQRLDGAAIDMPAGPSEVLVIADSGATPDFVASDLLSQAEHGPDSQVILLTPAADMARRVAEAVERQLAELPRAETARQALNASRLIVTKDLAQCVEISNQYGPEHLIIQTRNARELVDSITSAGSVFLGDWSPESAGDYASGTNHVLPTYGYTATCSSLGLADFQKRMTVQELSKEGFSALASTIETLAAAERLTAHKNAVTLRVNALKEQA
UniProt P07024: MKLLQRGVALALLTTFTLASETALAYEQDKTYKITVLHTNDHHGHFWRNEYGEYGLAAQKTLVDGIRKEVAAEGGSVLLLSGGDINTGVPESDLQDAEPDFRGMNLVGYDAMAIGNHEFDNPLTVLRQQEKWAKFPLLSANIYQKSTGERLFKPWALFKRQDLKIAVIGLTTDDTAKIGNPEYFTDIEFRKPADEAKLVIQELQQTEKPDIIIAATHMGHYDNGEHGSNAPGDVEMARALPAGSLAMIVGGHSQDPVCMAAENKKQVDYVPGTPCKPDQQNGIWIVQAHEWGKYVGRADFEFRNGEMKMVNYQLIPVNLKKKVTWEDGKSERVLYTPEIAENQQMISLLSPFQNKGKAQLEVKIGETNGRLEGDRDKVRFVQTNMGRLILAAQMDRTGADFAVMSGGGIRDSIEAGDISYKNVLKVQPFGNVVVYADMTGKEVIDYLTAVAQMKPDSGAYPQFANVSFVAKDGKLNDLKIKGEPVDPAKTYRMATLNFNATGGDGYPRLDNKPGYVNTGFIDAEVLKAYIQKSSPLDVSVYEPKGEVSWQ
UniProt P09835: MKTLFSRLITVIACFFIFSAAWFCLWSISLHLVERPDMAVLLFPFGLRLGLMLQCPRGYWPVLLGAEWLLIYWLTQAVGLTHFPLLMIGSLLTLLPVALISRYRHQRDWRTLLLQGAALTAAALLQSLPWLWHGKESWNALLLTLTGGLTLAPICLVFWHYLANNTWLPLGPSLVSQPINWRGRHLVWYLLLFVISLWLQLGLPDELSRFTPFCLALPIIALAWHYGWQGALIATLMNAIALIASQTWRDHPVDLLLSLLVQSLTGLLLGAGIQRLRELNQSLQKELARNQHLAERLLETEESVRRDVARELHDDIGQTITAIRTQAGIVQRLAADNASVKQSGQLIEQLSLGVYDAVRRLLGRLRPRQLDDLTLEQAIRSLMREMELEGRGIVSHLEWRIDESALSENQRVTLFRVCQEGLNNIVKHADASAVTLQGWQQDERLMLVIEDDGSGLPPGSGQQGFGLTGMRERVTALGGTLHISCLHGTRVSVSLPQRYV

What follows are targets tested with Nc1ncnc2c1ncn2[C@@H]1O[C@H](COP(=O)(O)OP(=O)(O)OP(=O)(O)O)[C@@H](O)[C@H]1O [adenosine 5'-triphosphate] (assay: log2 fold change of tryptic peptide abundance, ligand vs vehicle (limited proteolysis) (log2 ratio); higher = more trypsin-susceptible (destabilized)). Conditions: ligand concentration: 5 mM; sample: E. coli desalted lysate; replicate design: treated before aliquoting.
Description: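 HT-PELSA: desalted E. coli K-12 BW25113 lysate (with 12 mM MgCl2) incubated with 5 mM ATP (pH 7) or water for 30 min at 25 C, then a 4 min trypsin pulse at 22 C. Peptides were quantified by DIA-MS (4 replicates). Value is the peptide log2 fold change (treated/control); negative = stabilized. Scale: negative = ligand-stabilized region.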
“UniProt P08331 (peptide sequence: VTVNDITETVR, peptide start residue: 196)” gave a log2 fold change of 0.37.
With “UniProt P0A703 (peptide sequence: LRVDTGDSLIVK, peptide start residue: 97)” the log2 fold change was 0.614.
In the case of “UniProt P07330 (peptide sequence: ASLAAHKPLSAPTTLK, peptide start residue: 133)”, the log2 fold change is reported as -0.33.
With “UniProt P06965 (peptide sequence: TDALLYFGSK, peptide start residue: 4)” the log2 fold change was -0.545.
With “UniProt P07017 (peptide sequence: EGSDAIYAGTR, peptide start residue: 270)” the log2 fold change was 0.12.
Target “UniProt P09148 (peptide sequence: DLTAEQAAER, peptide start residue: 325)” has a log2 fold change of 0.356.
With “UniProt P07117 (peptide sequence: FAEADAHYHSAPPSR, peptide start residue: 484)” the log2 fold change was 0.416.
In the case of “UniProt P06974 (peptide sequence: LNPGDVLPIEKPDR, peptide start residue: 278)”, the log2 fold change is reported as -0.754.
For “UniProt P09184 (peptide sequence: TEFWLEK, peptide start residue: 83)”, the log2 fold change was -0.226.
For “UniProt P08202 (peptide sequence: PILDVQHLGIGGK, peptide start residue: 364)”, the log2 fold change was 0.503.
In the case of “UniProt P08245 (peptide sequence: AAPVRPKGDGVVR, peptide start residue: 22)”, the log2 fold change is reported as 0.54.
For “UniProt P06864 (peptide sequence: VPLMNEFGEYPHPKPR, peptide start residue: 493)”, the log2 fold change was 0.794.
For “UniProt P09162 (peptide sequence: EVSGDAAFSNQR, peptide start residue: 23)”, the log2 fold change was -0.324.
“UniProt P09154 (peptide sequence: EITAEHWQSLLK, peptide start residue: 26)” showed a log2 fold change of -0.162.
For “UniProt P09831 (peptide sequence: VAQGAKPGEGGQLPGDKVTPYIAK, peptide start residue: 932)”, the log2 fold change was -0.61.
In the case of “UniProt P07021 (peptide sequence: SNLTTQGLGKK, peptide start residue: 125)”, the log2 fold change is reported as -0.434.
With “UniProt P08395 (peptide sequence: FITLVADAR, peptide start residue: 488)” the log2 fold change was 0.232.
“UniProt P09153 (peptide sequence: AILNSDLIATK, peptide start residue: 4)” was tested, and the log2 fold change was -0.0581.
For “UniProt P09551 (peptide sequence: YFGDGTGVGLR, peptide start residue: 212)”, the log2 fold change was -0.35.
With “UniProt P09549 (peptide sequence: ILVGPDASKDKLK, peptide start residue: 186)” the log2 fold change was -0.482.
Work on “UniProt P06721 (peptide sequence: ASSLVFDSVEAK, peptide start residue: 31)” yielded a log2 fold change of -0.269.
In the case of “UniProt P08368 (peptide sequence: KFSTPSPVIR, peptide start residue: 124)”, the log2 fold change is reported as 0.702.
Target “UniProt P08506 (peptide sequence: KLGLTNTTFQTVHGLDAPGQFSTAR, peptide start residue: 161)” has a log2 fold change of 0.608.
In the case of “UniProt P08190 (peptide sequence: TVQVDDSSQSAHFPLQVR, peptide start residue: 126)”, the log2 fold change is reported as 0.232.
“UniProt P07363 (peptide sequence: SNESTSIR, peptide start residue: 258)” gave a log2 fold change of 0.82.
“UniProt P06968 (peptide sequence: GEGGFGHSGRQ, peptide start residue: 142)” showed a log2 fold change of 0.0774.
Target “UniProt P09126 (peptide sequence: CAIHYDGAEEAMR, peptide start residue: 161)” has a log2 fold change of -0.708.
“UniProt P09394 (peptide sequence: GASGYLPEHTLPAK, peptide start residue: 38)” gave a log2 fold change of 0.419.
For “UniProt P08369 (peptide sequence: EVTTDDELR, peptide start residue: 439)”, the log2 fold change was 0.139.
“UniProt P09099 (peptide sequence: TGGDVGPALGAAR, peptide start residue: 418)” gave a log2 fold change of 0.457.
“UniProt P09127 (peptide sequence: HQEETYR, peptide start residue: 297)” was tested, and the log2 fold change was 1.08.
“UniProt P09155 (peptide sequence: ISAELLASR, peptide start residue: 323)” gave a log2 fold change of 0.744.
Target “UniProt P06988 (peptide sequence: MTVQELSK, peptide start residue: 390)” has a log2 fold change of 0.553.
In the case of “UniProt P07024 (peptide sequence: MVNYQLIPVNLKK, peptide start residue: 309)”, the log2 fold change is reported as -0.272.
“UniProt P06996 (peptide sequence: DGNKLDLYGK, peptide start residue: 28)” gave a log2 fold change of -0.162.
In the case of “UniProt P06715 (peptide sequence: KVMWHAAQIR, peptide start residue: 51)”, the log2 fold change is reported as 0.614.
Work on “UniProt P06846 (peptide sequence: VLNDDPTLNVKEETK, peptide start residue: 21)” yielded a log2 fold change of -0.0727.
For “UniProt P09835 (peptide sequence: VSVSLPQRYV, peptide start residue: 491)”, the log2 fold change was 0.321.
“UniProt P07003 (peptide sequence: IKAPIVHALR, peptide start residue: 226)” was tested, and the log2 fold change was 0.864.
With “UniProt P07658 (peptide sequence: IADMHIALK, peptide start residue: 211)” the log2 fold change was -0.55.
